Experimental findings from article PMC6062506 are described below.

Chains of the proteins cited; added tags and fusions are not shown.
UniProt P09874: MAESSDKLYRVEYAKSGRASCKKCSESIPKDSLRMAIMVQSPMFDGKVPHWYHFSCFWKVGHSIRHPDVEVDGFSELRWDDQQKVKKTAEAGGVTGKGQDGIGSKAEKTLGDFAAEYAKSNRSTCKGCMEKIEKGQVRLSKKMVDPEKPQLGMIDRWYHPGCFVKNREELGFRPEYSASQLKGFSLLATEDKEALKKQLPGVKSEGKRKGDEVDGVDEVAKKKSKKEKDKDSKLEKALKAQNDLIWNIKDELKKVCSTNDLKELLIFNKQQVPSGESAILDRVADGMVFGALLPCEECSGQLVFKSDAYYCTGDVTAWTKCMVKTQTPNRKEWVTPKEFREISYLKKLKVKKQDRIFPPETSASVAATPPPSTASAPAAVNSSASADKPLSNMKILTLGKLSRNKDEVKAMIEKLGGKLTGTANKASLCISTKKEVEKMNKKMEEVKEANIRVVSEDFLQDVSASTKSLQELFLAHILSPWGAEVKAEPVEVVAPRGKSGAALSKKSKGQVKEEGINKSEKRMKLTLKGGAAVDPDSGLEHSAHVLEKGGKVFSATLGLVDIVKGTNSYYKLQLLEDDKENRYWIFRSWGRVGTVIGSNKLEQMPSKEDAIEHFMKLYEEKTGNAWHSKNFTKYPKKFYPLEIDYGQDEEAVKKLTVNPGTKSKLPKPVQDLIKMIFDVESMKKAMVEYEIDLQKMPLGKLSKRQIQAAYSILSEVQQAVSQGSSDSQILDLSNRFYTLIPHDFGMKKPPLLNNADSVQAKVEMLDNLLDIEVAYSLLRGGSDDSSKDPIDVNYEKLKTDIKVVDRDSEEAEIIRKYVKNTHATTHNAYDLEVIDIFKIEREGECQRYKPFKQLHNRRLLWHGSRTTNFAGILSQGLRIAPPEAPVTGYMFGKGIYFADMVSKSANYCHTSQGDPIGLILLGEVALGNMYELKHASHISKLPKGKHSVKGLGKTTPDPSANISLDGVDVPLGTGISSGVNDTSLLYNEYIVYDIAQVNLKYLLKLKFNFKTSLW

Experiment [1] has as its target T1, recombinant PXR protein (50 kDa) (UniProt O75469).
T1 sequence: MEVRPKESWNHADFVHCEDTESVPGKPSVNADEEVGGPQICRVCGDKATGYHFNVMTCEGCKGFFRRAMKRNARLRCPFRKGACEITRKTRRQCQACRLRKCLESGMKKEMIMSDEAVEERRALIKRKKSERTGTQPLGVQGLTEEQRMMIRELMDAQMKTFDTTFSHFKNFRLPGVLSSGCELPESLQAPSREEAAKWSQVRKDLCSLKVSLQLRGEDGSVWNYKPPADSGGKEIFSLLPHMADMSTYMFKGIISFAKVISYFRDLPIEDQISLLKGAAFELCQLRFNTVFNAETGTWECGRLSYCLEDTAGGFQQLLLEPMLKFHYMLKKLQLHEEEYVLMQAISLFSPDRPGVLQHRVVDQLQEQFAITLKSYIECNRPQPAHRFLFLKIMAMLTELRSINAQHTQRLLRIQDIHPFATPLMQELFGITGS
Description: far-Western, overlay or dot blot; cell-free; recombinant PXR protein resolved by SDS-PAGE on PVDF membrane; UP-PARP1 or AP-PARP1 as probe, 37 °C for 1 h, Hyb-75 buffer; both purified.

In experiment [2] the target is T2, EGFP-tagged full-length PXR (human) (UniProt O75469).
T2 sequence: T1 sequence
Kind of experiment: co-IP; HepG2 cells co-transfected with Flag-PARP1 and EGFP-PXR (full length or deletion mutants); nuclear extracts; IP with anti-Flag or anti-EGFP at 4 °C overnight, protein-A/G agarose; washed with 50 mM Tris, 150 mM NaCl, 1% NP-40, 1% sodium deoxycholate; western blot; nonspecific IgG as control.

The target of experiment [3] is Flag-tagged full-length PARP1 (human) (UniProt P09874). Described as above.

No constants are given. Whether binding was seen depends on the method and setting. For some of these results: Binding seen in cells or lysates may run through a third protein. Some binding calls cover weakened binding; strength is not graded here. For some of these results: Tags and fused reporters may be left off the sequences shown.

On to “autopoly(ADP-ribosyl)ated PARP1 (from UniProt P09874 1-1014) (enzyme)”, for which the binding entry in experiment [1] was “binds”.
Turning to “unpoly(ADP-ribosyl)ated PARP1 (recombinant PARP1 protein) (from UniProt P09874 1-1014) (enzyme)”, the binding entry in experiment [1] was “binds”.
For “Flag-tagged full-length PARP1 (from UniProt P09874 1-1014) (enzyme)”, in experiment [2], the binding result is reported as “binds”.

B1: EGFP-tagged full-length PXR (receptor, UniProt O75469 1-434)
chain: T1 sequence
Take B1: in experiment [3], the binding result is listed as “binds”.
